# Reference: paper PMC5707026
# The chains behind the UniProt entries cited, without tags or fusion partners. Residues count along the entry.
# UniProt Q07008, residues 19-2531: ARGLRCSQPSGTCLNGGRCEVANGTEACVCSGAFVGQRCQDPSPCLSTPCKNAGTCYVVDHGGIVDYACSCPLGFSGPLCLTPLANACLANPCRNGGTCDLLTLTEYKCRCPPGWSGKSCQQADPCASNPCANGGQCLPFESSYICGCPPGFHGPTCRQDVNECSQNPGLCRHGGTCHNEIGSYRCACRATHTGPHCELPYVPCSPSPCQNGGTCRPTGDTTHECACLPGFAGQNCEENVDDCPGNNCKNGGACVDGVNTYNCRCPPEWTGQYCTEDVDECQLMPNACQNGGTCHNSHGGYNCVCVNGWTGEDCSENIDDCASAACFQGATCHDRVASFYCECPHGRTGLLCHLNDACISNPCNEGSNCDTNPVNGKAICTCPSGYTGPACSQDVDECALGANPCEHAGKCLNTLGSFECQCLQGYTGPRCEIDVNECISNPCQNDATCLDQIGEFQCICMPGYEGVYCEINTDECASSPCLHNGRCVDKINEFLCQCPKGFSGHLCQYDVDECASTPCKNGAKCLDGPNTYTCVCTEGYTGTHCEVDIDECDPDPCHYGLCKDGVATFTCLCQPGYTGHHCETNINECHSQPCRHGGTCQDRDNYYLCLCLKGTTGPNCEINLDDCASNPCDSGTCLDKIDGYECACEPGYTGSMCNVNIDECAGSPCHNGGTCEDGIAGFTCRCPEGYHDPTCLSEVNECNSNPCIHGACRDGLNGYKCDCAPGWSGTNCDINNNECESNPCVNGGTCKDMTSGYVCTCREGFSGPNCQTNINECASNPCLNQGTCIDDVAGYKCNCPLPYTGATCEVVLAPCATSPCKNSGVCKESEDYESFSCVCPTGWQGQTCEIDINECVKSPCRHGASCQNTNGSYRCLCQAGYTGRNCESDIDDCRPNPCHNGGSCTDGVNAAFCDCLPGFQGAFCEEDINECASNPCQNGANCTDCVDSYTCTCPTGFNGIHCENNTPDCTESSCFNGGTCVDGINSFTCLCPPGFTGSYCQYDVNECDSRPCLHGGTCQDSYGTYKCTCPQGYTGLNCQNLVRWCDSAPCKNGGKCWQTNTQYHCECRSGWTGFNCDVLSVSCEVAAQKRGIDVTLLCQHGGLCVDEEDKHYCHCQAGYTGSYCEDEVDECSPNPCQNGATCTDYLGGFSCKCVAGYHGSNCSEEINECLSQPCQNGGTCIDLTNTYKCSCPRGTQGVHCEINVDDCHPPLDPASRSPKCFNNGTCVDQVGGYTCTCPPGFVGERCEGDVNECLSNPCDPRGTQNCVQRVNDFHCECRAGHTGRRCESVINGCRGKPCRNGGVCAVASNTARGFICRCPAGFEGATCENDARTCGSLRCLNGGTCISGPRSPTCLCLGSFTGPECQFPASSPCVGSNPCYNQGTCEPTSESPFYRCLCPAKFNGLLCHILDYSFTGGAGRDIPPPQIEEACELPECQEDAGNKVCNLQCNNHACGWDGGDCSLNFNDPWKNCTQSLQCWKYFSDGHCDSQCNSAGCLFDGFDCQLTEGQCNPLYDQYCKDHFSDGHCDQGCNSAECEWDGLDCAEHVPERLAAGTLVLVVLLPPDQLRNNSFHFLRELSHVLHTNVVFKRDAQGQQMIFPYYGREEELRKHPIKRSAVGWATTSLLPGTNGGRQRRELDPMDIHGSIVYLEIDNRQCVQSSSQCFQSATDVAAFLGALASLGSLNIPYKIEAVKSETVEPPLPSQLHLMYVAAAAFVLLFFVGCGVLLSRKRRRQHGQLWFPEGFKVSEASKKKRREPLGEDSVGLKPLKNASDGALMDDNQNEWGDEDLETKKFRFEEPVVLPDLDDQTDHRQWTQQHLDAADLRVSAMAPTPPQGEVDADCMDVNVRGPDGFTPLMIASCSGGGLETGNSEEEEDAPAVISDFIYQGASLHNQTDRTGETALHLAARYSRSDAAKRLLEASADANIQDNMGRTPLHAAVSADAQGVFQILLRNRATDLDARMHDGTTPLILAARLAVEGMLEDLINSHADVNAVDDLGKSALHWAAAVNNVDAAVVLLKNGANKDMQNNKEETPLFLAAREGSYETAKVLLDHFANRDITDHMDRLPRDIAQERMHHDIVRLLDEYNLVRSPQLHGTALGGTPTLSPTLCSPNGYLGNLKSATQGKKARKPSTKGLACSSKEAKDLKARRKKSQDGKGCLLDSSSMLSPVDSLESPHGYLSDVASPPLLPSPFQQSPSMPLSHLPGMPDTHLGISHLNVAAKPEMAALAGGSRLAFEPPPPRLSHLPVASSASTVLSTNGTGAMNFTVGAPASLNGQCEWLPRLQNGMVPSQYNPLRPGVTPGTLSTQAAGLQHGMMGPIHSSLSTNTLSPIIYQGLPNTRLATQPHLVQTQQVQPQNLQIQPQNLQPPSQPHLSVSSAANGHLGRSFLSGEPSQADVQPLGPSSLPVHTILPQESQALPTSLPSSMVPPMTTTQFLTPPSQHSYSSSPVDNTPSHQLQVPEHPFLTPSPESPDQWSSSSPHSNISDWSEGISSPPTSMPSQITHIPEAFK
# Results are given in words; binding and its absence hold for the method and conditions named. Binding seen in cells or lysates may run through a third protein. Some results given as binding are weak or reduced against the parent protein; the word gives no strength. Sequences can lack the tags named with a protein.
# Molecular target: Notch1 full-length form (Notch1-FL) (rat (endogenous in rat brain)) (UniProt Q07008)
# Test: co-IP; brain samples of ICH rats transfected in vivo with GFP-Botch plasmids, lysed in ice-cold RIPA buffer; lysate with specific antibodies or normal IgG 1 h at 4 °C, protein A+G agarose overnight at 4 °C, immunoblot; which antibody precipitated is not stated
binder,measurement,value
"wild type GFP-Botch (rat Botch, NPG7/Chac1) (protein, UniProt B3STU3 1-222) MKQESAAQSTPPPSLSPAPSAQPSWEDGDPQALWIFGYGSLVWKPDFAYSDSRVGFVRGYSRRFWQGDTFHRGSDKMPGRVVTLLEDHEGCTWGVAYQVRGEQVSEALKYLNVREAVLGGYDTKEVTFYPQDTPDQPLTALAYVATPQNPGYLGPAPEEVIATQILACRGFSGHNLEYLLRLADFMQLCGPQAQDEHLEAIVDAVGSLLPCSYLSEQPLALI",binding,binds
